{
  "source": "PubChem BioAssay AID2685",
  "about": "(National Center for Advancing Translational Sciences (NCATS), 2010)",
  "note": "Hit rate of the full screen: of about 320,000 compounds, about 2,100 (0.66%) were called active. Inconclusive means that the source gave no clear call. Such entries were picked first, then a sample of the others. Calls come from the whole dose curve; as a rule, active = well fitted inhibition curve with a large enough effect in the signal ratio, with a control signal flat (not every such curve was filed as active); inconclusive = small, poorly fitted or top-dose-only effect, or effect the other way, or a change in a side signal; inactive = flat fitted curve, though single readings scatter; the % refers to the signal ratio. Potencies beside an inconclusive call are fits to weak or partial responses and may not hold up. % is set by controls: 0 for no effect and ±100 for the full control effect; potency is the fitted concentration of half-maximal effect.",
  "data": [
    {"assay": "qHTS Assay for Lipid Storage Modulators in Drosophila S3 Cells", "conditions": "BODIPY lipid droplet fluorescence, 18-24 h, cells fed with added oleic acid; lipid storage change, negative = inhibition: at 46.1 µM (top of the series) unless noted", "method_in_brief": "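Drosophila S3 cells loaded with oleic acid (400 uM, as added) and compounds at several concentrations; lipid droplets imaged by 488-nm laser-scanning cytometry, 500–530 nm intensity and object ratio to cell channel. Percent activity normalized to 20 uM Triacsin C.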", "values": [
      {"smiles": "O=c1c2c([nH]c3ccc(Br)cc13)CCCC2", "lipid storage change, negative = inhibition": "inconclusive: 34.5%"},
      {"smiles": "CCOc1ccc(NC(=O)CN(C)C(=O)c2ccccc2-n2cnnn2)cc1OCC", "lipid storage change, negative = inhibition": "inconclusive"},
      {"smiles": "Cc1ccc(C(=O)Nc2sc(Cc3ccc4c(c3)OCO4)c(C)c2C(N)=O)cc1", "lipid storage change, negative = inhibition": "inconclusive: 26.2%"},
      {"smiles": "Cc1ccc(C)c(NC(=O)Cn2nnc(-c3ccc(N4CCOCC4)cc3)n2)c1", "lipid storage change, negative = inhibition": "inconclusive: 22.3%"},
      {"smiles": "COc1ccc(C(=O)NC2CCN(C(=O)NC3CCCCC3)CC2)cc1", "lipid storage change, negative = inhibition": "inconclusive: 10.8%"},
      {"smiles": "Cc1ccc(CCN=c2c([N+](=O)[O-])nn(-c3ccccc3)n2O)cc1", "lipid storage change, negative = inhibition": "inactive"},
      {"smiles": "Cc1cccc(-n2nnc(C(=O)N3CCc4ccccc4C3)c2N)c1", "lipid storage change, negative = inhibition": "inconclusive: -13.8%"},
      {"smiles": "CN(C)CCCNCCCNC(=O)/C=N/O", "lipid storage change, negative = inhibition": "inconclusive: -2.64%"},
      {"smiles": "O=C(COC(=O)Cc1cccs1)Nc1ccccc1Cl", "lipid storage change, negative = inhibition": "inconclusive: -9.86%"},
      {"smiles": "CCNC(=S)N(CCc1c(C)[nH]c2ccc(C)cc12)Cc1cc(OC)c(OC)c(OC)c1", "Potency": "inconclusive: 0.651 µM [activator, full curve, poor fit]"},
      {"smiles": "O=C1C(Cl)=C(NS(=O)(=O)c2ccc([N+](=O)[O-])cc2)C(=O)c2ccccc21", "lipid storage change, negative = inhibition": "inconclusive: -13.6%"},
      {"smiles": "O=C(CSc1nnc(C23CC4CC(CC(C4)C2)C3)o1)Nc1ccc(N2CCOCC2)c(Cl)c1", "Potency": "inconclusive: 6.51 µM [falling, partial curve]"},
      {"smiles": "CCC(C(=O)OC)n1cnc2c(nnn2-c2cccc(Cl)c2)c1=O", "note": "(stereo not drawn)", "lipid storage change, negative = inhibition": "inconclusive: 68% [cytotoxic]"},
      {"smiles": "O=C(COC(=O)CC1CCCC1)Nc1ccccc1[N+](=O)[O-]", "lipid storage change, negative = inhibition": "inconclusive: 6.79%"},
      {"smiles": "CC(C)(C)CC(=O)Nc1cccc(-c2cn3cccnc3n2)c1", "lipid storage change, negative = inhibition": "inconclusive: 18.4% [at 9.22 µM]"},
      {"smiles": "C=CCc1ccccc1OCC(=O)N/N=C/c1ccccc1OCC", "Potency": "inconclusive: 4.61 µM [activator, partial curve]"},
      {"smiles": "O=C(c1ccccc1)c1cccc(NC(=O)c2ccco2)c1", "lipid storage change, negative = inhibition": "inconclusive: 9.68%"},
      {"smiles": "CCC1(c2ccccc2)NC(=O)N(Cc2cccc([N+](=O)[O-])c2)C1=O", "note": "(stereo not drawn)", "lipid storage change, negative = inhibition": "inconclusive: 49.4%"},
      {"smiles": "COc1ccccc1NC(=O)CCCC(=O)OCC(=O)c1ccc(F)cc1", "lipid storage change, negative = inhibition": "inconclusive: 205%"},
      {"smiles": "Cc1cccc(C(=O)OCC(=O)Nc2c(C)n(C)n(-c3ccccc3)c2=O)c1", "lipid storage change, negative = inhibition": "inconclusive: 17.6%"},
      {"smiles": "O=C(N/N=C/c1ccc2c(c1)OCO2)c1cc(-c2ccco2)nc2ccccc12", "lipid storage change, negative = inhibition": "inconclusive"},
      {"smiles": "O=C(O)c1ccccc1NS(=O)(=O)c1ccc2c3c(cccc13)C(=O)N2", "Potency": "inconclusive: 0.146 µM [activator, single point]"},
      {"smiles": "Cc1ccc(C(=O)NCC(=O)OCC(=O)N2CCCc3ccccc32)cc1", "Potency": "inconclusive: 1.3 µM [activator, full curve]"},
      {"smiles": "CSc1ccccc1OCc1cc(C(=O)N2CCc3sccc3C2)no1", "lipid storage change, negative = inhibition": "inconclusive: 9.63%"},
      {"smiles": "O=C(c1ccccc1)N(Cc1ccccc1)Cc1ccccc1", "Potency": "inconclusive: 6.51 µM [activator, partial curve, poor fit]"},
      {"smiles": "CCc1ccc(CNC(=O)C2CCC(=O)N2C2CCCCC2)cc1", "note": "(stereo not drawn)", "lipid storage change, negative = inhibition": "inconclusive: -51.8%"},
      {"smiles": "CN1C(=O)c2cccc3c(S(=O)(=O)Nc4ccccc4F)ccc1c23", "lipid storage change, negative = inhibition": "inconclusive: -19.6%"},
      {"smiles": "O=C(c1ccc(Cn2c(=O)[nH]c3ccccc3c2=O)cc1)N1CCN(c2ccc(F)cc2)CC1", "lipid storage change, negative = inhibition": "inconclusive: -22.5%"},
      {"smiles": "CCCCn1c(N)c(N(CCOC)C(=O)CN2C(=O)C3CCCCC3C2=O)c(=O)[nH]c1=O", "note": "(stereo not drawn)", "Potency": "inconclusive: 13 µM [falling, partial curve, poor fit]"},
      {"smiles": "O=C(NC(=S)Nc1ccc(C(=O)N2CCOCC2)cc1)c1ccc([N+](=O)[O-])cc1", "lipid storage change, negative = inhibition": "inconclusive: 21.4%"},
      {"smiles": "CC(Cn1nnc2ccccc21)C(=O)O", "note": "(stereo not drawn)", "Potency": "inconclusive: 0.0046 µM [falling, full curve, poor fit]"},
      {"smiles": "O=C(Nc1nnc(SCc2ccccn2)s1)C1CC(=O)N(c2ccc(F)cc2)C1", "note": "(stereo not drawn)", "Potency": "inconclusive: 6.51 µM [activator, single point]"},
      {"smiles": "CCOc1ccc(NC(=S)NC(C)CCc2ccccc2)cc1", "note": "(stereo not drawn)", "Potency": "inconclusive: 29.1 µM [rising, single point]"},
      {"smiles": "COc1ccc(NC(C)=O)cc1S(=O)(=O)NC(C)c1ccc(-n2ccnc2)cc1", "note": "(stereo not drawn)", "Potency": "inconclusive: 18.4 µM [activator, single point]"},
      {"smiles": "COCCCNC(=S)NC1CC2CCC(C1)N2Cc1ccccc1", "note": "(stereo not drawn)", "lipid storage change, negative = inhibition": "inconclusive: 22.4%"},
      {"smiles": "CCOc1ccc(Br)cc1S(=O)(=O)Nc1nc(CN2CCOCC2)nc2sc(C)c(C)c12", "lipid storage change, negative = inhibition": "inconclusive: 277%"},
      {"smiles": "COc1ccccc1N1CCN(/N=C/c2ccccc2C(=O)O)CC1", "Potency": "inconclusive: 25.9 µM [activator, partial curve]"},
      {"smiles": "Cc1ccc2c(CN3CCOCC3)cc(=O)oc2c1", "lipid storage change, negative = inhibition": "inactive"},
      {"smiles": "COC(=O)Cc1cc(=O)[nH]c(/N=C(\\N)Nc2ccc(C)cc2C)n1", "lipid storage change, negative = inhibition": "inconclusive: 14.9%"},
      {"smiles": "Cc1cccc(C)c1OCC(=O)N/N=C/c1ccncc1", "lipid storage change, negative = inhibition": "inactive"},
      {"smiles": "CCOC(=O)c1ccc(NC(=O)c2nc[nH]c2C(=O)NCCCCCNC(=O)OC(C)(C)C)cc1", "lipid storage change, negative = inhibition": "inconclusive: -40.9%"},
      {"smiles": "O=C(O)c1ccccc1O", "lipid storage change, negative = inhibition": "inconclusive: -3.58%"},
      {"smiles": "Cc1c(/C(O)=C2/C(=O)C(=O)N(CCN3CCOCC3)C2c2ccccn2)cnn1-c1ccccc1", "note": "(stereo not drawn)", "lipid storage change, negative = inhibition": "inconclusive: -17.5%"},
      {"smiles": "Cc1ccc(N(CC(=O)NC2CCCCC2)C(=O)c2ccc(C)s2)cc1", "lipid storage change, negative = inhibition": "inconclusive: -20.3%"},
      {"smiles": "CC(C)(C)c1cc(CN2CCOCC2)c(C(=O)O)o1", "lipid storage change, negative = inhibition": "inconclusive: -5.62%"},
      {"smiles": "COc1cc(/C=C(\\C#N)C(=O)NCCc2ccccc2)cc(OC)c1O", "lipid storage change, negative = inhibition": "inconclusive: -9.29%"},
      {"smiles": "CN(C)c1ccc(/C=N\\NC(=O)c2ccc(Cn3cc(Cl)cn3)cc2)cc1", "lipid storage change, negative = inhibition": "inconclusive: 22.8%"},
      {"smiles": "Cc1cccc(/C(N)=N/OC(=O)c2ccncc2)c1", "Potency": "inconclusive: 14.6 µM [activator, partial curve, poor fit]"},
      {"smiles": "CCNS(=O)(=O)c1ccc(NS(C)(=O)=O)cc1", "lipid storage change, negative = inhibition": "inconclusive: -59%"},
      {"smiles": "Cc1ccc(S(=O)(=O)N(Cc2ccccc2)Cc2ccco2)cc1", "lipid storage change, negative = inhibition": "inconclusive: 17.2%"},
      {"smiles": "CCOC(=O)C1CCCN(CCC(=O)Nc2ccccc2C)C1", "note": "(stereo not drawn)", "lipid storage change, negative = inhibition": "inconclusive: 14.4%"},
      {"smiles": "COc1cc(-c2c(C#N)c(N)nc3c2c(C)nn3-c2ccc(C)c(C)c2)cc(OC)c1OC", "lipid storage change, negative = inhibition": "inconclusive: 174%"},
      {"smiles": "O=c1c(Cc2c(F)cccc2Cl)c(O)ccn1C1CC1", "lipid storage change, negative = inhibition": "inactive"},
      {"smiles": "CCc1nnc(NC(=O)CSc2nnc(COc3cccc(C)c3)o2)s1", "lipid storage change, negative = inhibition": "inconclusive: -14.3%"},
      {"smiles": "COC(=O)CCC(=O)Nc1cccc2ccccc12", "lipid storage change, negative = inhibition": "inconclusive: -1.56%"},
      {"smiles": "C(=C\\c1ccccc1)/CN1CCN(Cc2ccc3c(c2)OCO3)CC1", "lipid storage change, negative = inhibition": "inconclusive: 11.7%"},
      {"smiles": "O=C(CN1C(=O)c2ccccc2C1=O)Nc1ccc(-c2nc3ccccc3o2)cc1", "lipid storage change, negative = inhibition": "inactive"},
      {"smiles": "CCOC(=O)c1sc2ncnc(Nc3cccc(C(=O)O)c3)c2c1C", "Potency": "inconclusive: 32.6 µM [falling, single point]"},
      {"smiles": "CCOC(=O)CSc1nncc2ccc(OC)c(OC)c12", "Potency": "inconclusive: 11.6 µM [activator, single point]"},
      {"smiles": "Cc1cc(C)c2c(CN3CCN(Cc4ccc5c(c4)OCO5)CC3)cc(=O)oc2c1", "lipid storage change, negative = inhibition": "inconclusive: 11%"},
      {"smiles": "Cc1sc2ncn(CC(=O)N3CCN(c4ccccn4)CC3)c(=O)c2c1S(=O)(=O)N1CCC(C)CC1", "lipid storage change, negative = inhibition": "inconclusive: 68.9%"},
      {"smiles": "COc1cc(-c2nnc(SCC(=O)O)n2-c2ccccc2)cc(OC)c1OC", "lipid storage change, negative = inhibition": "inconclusive: 21.1%"},
      {"smiles": "CCOC(=O)c1nnn(-c2ccc([N+](=O)[O-])cc2)c1C", "lipid storage change, negative = inhibition": "inconclusive: 3.47%"},
      {"smiles": "CCn1nc(C(C)C(=O)O)c2ccccc2c1=O", "note": "(stereo not drawn)", "lipid storage change, negative = inhibition": "inconclusive: 15.2%"},
      {"smiles": "O=C(Nc1cccnc1)c1cnn2c(C(F)F)cc(C3CC3)nc12", "Potency": "inconclusive: 0.517 µM [activator, full curve]"},
      {"smiles": "O=C(c1cccc(S(=O)(=O)NCc2ccc3c(c2)OCO3)c1)N1CCCC1", "Potency": "inconclusive: 5.17 µM [activator, full curve, poor fit]"},
      {"smiles": "CN=c1scc(C)n1/N=C/c1ccc(O)cc1", "Potency": "inconclusive: 2.91 µM [activator, partial curve]"},
      {"smiles": "COc1ccc(CNC(=O)CN(C(=O)c2csnn2)c2ccc3c(c2)OCCO3)cc1", "lipid storage change, negative = inhibition": "inconclusive: -11.2%"},
      {"smiles": "O=C(Nc1ccccc1Cl)OCc1cncs1", "lipid storage change, negative = inhibition": "inconclusive: -43% [cytotoxic] [at 0.369 µM]"},
      {"smiles": "O=C(NCC1CCN(S(=O)(=O)c2ccccc2)CC1)Nc1ccc(F)cc1F", "lipid storage change, negative = inhibition": "inconclusive: -29.9%"},
      {"smiles": "O=C(NC1CCCCCC1)C1CC(=O)N(c2ccc(Cl)cc2)C1", "note": "(stereo not drawn)", "lipid storage change, negative = inhibition": "inconclusive: 50.7%"},
      {"smiles": "O=C1NCCCC2c3c(cc(Br)c(O)c3Br)OC12N1CCOCC1", "note": "(stereo not drawn)", "lipid storage change, negative = inhibition": "inconclusive: -116%"},
      {"smiles": "Cc1ccc(-c2nnn(CC(=O)N3CCCCC3)n2)cc1", "Potency": "inconclusive: 29.1 µM [activator, single point]"},
      {"smiles": "CCOc1cc(N2CCOCC2)c(OCC)cc1NC(=O)CN1CCN(Cc2ccc3c(c2)OCO3)CC1", "Potency": "inconclusive: 29.1 µM [falling, single point]"},
      {"smiles": "CC1=Nc2ccccc2/C1=C/c1sc(=N)n(-c2nccs2)c1O", "lipid storage change, negative = inhibition": "inconclusive: -57.1%"},
      {"smiles": "O=C(Cn1ncc2c(=O)oc3ccccc3c21)N1CCCN(Cc2ccccc2F)C1", "lipid storage change, negative = inhibition": "inconclusive: 25.8%"},
      {"smiles": "O=C1CN(C(=O)/C=C/c2ccc(Cl)cc2)c2ccccc2N1", "Potency": "inconclusive: 1.84 µM [activator, full curve]"},
      {"smiles": "NC(=O)C[n+]1cccc(CNC(=O)c2ccc(OC(F)F)cc2)c1", "lipid storage change, negative = inhibition": "inconclusive: 13.6%"}
    ]}
  ]
}
